Drawing on paper PMC11335225, this text covers binding for one molecule.

Protein sequences, listed by entry. Tags and fused reporters are not part of them.
UniProt O43526: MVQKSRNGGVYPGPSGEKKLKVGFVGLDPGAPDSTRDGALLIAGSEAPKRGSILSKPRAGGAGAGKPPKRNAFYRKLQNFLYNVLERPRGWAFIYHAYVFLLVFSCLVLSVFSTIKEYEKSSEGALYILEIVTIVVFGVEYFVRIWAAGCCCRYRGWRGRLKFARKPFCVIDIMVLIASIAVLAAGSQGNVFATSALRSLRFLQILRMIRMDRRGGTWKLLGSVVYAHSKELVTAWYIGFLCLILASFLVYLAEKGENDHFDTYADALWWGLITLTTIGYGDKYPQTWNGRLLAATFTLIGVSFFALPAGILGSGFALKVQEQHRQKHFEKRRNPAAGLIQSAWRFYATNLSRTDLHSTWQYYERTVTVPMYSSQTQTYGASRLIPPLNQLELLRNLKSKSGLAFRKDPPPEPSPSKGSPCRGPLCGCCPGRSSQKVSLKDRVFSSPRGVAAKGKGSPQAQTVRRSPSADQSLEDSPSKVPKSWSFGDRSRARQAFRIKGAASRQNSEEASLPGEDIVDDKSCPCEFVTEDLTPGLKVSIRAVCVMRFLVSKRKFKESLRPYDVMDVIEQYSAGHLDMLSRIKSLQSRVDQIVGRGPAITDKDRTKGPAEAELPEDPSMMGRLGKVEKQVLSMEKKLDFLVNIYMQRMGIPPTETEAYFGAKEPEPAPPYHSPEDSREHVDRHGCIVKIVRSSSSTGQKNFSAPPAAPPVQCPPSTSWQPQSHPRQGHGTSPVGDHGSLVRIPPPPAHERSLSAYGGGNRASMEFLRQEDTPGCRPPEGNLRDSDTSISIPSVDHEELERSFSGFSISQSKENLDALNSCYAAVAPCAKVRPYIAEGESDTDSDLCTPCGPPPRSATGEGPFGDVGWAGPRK
UniProt P56696: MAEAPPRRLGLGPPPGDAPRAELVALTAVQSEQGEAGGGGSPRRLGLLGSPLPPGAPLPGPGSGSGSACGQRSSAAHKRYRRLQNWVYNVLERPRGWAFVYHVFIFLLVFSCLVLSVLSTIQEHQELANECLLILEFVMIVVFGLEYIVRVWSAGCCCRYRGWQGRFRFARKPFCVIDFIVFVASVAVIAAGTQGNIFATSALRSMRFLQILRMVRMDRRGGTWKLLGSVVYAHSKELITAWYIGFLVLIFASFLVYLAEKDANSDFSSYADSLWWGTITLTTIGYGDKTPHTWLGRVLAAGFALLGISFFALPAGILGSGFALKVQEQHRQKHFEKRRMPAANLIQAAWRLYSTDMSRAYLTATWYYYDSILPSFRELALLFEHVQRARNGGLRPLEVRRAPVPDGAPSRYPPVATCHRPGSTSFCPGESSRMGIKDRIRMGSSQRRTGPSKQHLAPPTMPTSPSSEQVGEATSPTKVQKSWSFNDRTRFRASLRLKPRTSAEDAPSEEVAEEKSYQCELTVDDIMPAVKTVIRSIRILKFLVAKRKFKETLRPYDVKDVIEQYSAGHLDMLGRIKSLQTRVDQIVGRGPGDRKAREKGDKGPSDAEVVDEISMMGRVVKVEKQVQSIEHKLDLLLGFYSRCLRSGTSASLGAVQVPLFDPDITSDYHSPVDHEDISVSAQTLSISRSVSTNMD

For assay [1], the target named is flag-tagged KV7.2 channel subunit (UniProt O43526). The assay is described as follows: co-IP; lysates of HEK293 cells expressing flag-tagged KV7 and myc-tagged KVS; anti-FLAG M2 beads, 4 C, 12 h, washed 4 times; western blot with anti-myc and anti-flag. A general note: In western blotting, separated proteins are transferred to a membrane and probed.
The target of assay [2] is flag-tagged KV7.4 channel subunit (UniProt P56696). The assay is described as above.

These are yes or no findings as the source states them, for the method shown. Binding seen in cells or lysates may run through a third protein. Some entries that bind do so weakly or less than the wild type. Tags and fused reporters may be left off the sequences shown.

B1: myc-tagged KV8.2 subunit (protein, UniProt Q8TDN2 1-545)
chain: MLKQSERRRSWSYRPWNTTENEGSQHRRSICSLGARSGSQASIHGWTEGNYNYYIEEDEDGEEEDQWKDDLAEEDQQAGEVTTAKPEGPSDPPALLSTLNVNVGGHSYQLDYCELAGFPKTRLGRLATSTSRSRQLSLCDDYEEQTDEYFFDRDPAVFQLVYNFYLSGVLLVLDGLCPRRFLEELGYWGVRLKYTPRCCRICFEERRDELSERLKIQHELRAQAQVEEAEELFRDMRFYGPQRRRLWNLMEKPFSSVAAKAIGVASSTFVLVSVVALALNTVEEMQQHSGQGEGGPDLRPILEHVEMLCMGFFTLEYLLRLASTPDLRRFARSALNLVDLVAILPLYLQLLLECFTGEGHQRGQTVGSVGKVGQVLRVMRLMRIFRILKLARHSTGLRAFGFTLRQCYQQVGCLLLFIAMGIFTFSAAVYSVEHDVPSTNFTTIPHSWWWAAVSISTVGYGDMYPETHLGRFFAFLCIAFGIILNGMPISILYNKFSDYYSKLKAYEYTTIRRERGEVNFMQRARKKIAECLLGSNPQLTPRQEN
As to B1, the binding entry in assay [1] and in assay [2] was “binds” in each case.
